Measured values: US8034945B2, “4-phenyl-5-OXO-1,4,5,6,7,8-hexahydroquinoline derivatives as medicaments for the treatment of infertility” (N.V. Organon, priority 2005, dated 2011)
Some of these results come from one statement about several compounds together.

What follows are compounds tested against T1, human FSH receptor (Homo sapiens, UniProt P23945) (assay: Agonistic activity at the human FSH receptor expressed in CHO cells (CRE/luciferase reporter)). Details: CHO cells stably transfected with human FSH receptor and CRE-luciferase reporter; tested 0.1 nM to 10 μM; read-out: EC50 (concentration of test compound causing half-maximal (50%) luciferase stimulation).
T1 construct: expressed in transfected cells; host or cells: Chinese Hamster Ovary (CHO) cells, stably transfected and cotransfected with a CRE/luciferase reporter
T1 sequence (P23945 18-695): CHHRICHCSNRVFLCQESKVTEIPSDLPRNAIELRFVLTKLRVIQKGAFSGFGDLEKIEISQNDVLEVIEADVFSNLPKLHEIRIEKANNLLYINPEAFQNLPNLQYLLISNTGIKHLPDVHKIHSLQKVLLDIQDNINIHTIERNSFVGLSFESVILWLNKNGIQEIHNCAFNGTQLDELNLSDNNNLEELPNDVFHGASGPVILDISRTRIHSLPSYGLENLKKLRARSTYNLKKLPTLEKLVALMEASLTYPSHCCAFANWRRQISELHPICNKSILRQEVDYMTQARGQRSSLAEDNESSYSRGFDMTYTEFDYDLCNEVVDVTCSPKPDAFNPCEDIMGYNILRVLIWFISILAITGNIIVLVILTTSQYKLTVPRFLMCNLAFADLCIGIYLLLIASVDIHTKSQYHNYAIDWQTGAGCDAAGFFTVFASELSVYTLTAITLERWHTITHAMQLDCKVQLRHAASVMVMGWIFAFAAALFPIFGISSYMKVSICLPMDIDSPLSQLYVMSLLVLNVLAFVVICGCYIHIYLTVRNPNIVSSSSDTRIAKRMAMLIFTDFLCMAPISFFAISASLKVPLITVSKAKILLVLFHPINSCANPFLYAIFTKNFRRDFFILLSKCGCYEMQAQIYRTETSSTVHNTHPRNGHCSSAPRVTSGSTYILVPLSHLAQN
Assay type: cell-based

EC50, < 10 nM:
CCCC1CC(=O)C2=C(C1)NC(C)=C(C#N)C2c1cc(Br)c(OCc2cccc(OC)c2)c([N+](=O)[O-])c1 (stereo not drawn) [Example 2, 4-[3-Bromo-4-(3-methoxy-benzyloxy)-5-nitro-phenyl]-2-methyl-5-oxo-7-propyl-1,4,5,6,7,8-hexahydro-quinoline-3-carbonitrile]
CCCC1CC(=O)C2=C(C1)NC(C)=C(C#N)C2c1cc(Br)c(OCc2cccc(OC)c2)c(NS(C)(=O)=O)c1 (stereo not drawn) [Example 10, N-[3-Bromo-5-(3-cyano-2-methyl-5-oxo-7-propyl-1,4,5,6,7,8-hexahydro-quinolin-4-yl)-2-(3-methoxy-benzyloxy)-phenyl]-methanesulfonamide]
CCCC1CC(=O)C2=C(C1)NC(C)=C(C#N)C2c1cc(Br)c(NCc2cccnc2)c(NS(=O)(=O)CCC)c1 (stereo not drawn) [Example 17, Propane-1-sulfonic acid {3-bromo-5-(3-cyano-2-methyl-5-oxo-7-propyl-1,4,5,6,7,8-hexahydro-quinolin-4-yl)-2-[(pyridin-3-ylmethyl)-amino]-phenyl}-amide]
CCCC1CC(=O)C2=C(C1)NC(C)=C(C#N)C2c1cc(Br)c(NCc2ccc(C(=O)NCCOC)cc2)c(NS(=O)(=O)CCC)c1 (stereo not drawn) [Example 19, 4-{[2-Bromo-4-(3-cyano-2-methyl-5-oxo-7-propyl-1,4,5,6,7,8-hexahydro-quinolin-4-yl)-6-(propane-1-sulfonylamino)-phenylamino]-methyl}-N-(2-methoxy-ethyl)-benzamide]
CCCC1CC(=O)C2=C(C1)NC(C)=C(C#N)C2c1cc(Br)c(NCc2ccc(C(=O)NCCc3c[nH]cn3)cc2)c(NS(=O)(=O)CCC)c1 (stereo not drawn) [Example 20, 4-{[2-Bromo-4-(3-cyano-2-methyl-5-oxo-7-propyl-1,4,5,6,7,8-hexahydro-quinolin-4-yl)-6-(propane-1-sulfonylamino)-phenylamino]-methyl}-N-[2-(1H-imidazol-4-yl)-ethyl]-benzamide]
CCCC1CC(=O)C2=C(C1)NC(C)=C(C#N)C2c1cc(Br)c(OCc2cccc(NS(C)(=O)=O)c2)c(NS(C)(=O)=O)c1 (stereo not drawn) [Example 24, N-[3-Bromo-5-(3-cyano-2-methyl-5-oxo-7-propyl-1,4,5,6,7,8-hexahydro-quinolin-4-yl)-2-(3-methanesulfonylamino-benzyloxy)-phenyl]-methanesulfonamide]
CCCC1CC(=O)C2=C(C1)NC(C)=C(C#N)C2c1cc(Br)c(NCc2ccccc2NC(C)=O)c(NS(=O)(=O)CCC)c1 (stereo not drawn) [Example 30, N-(2-{[2-Bromo-4-(3-cyano-2-methyl-5-oxo-7-propyl-1,4,5,6,7,8-hexahydro-quinolin-4-yl)-6-(propane-1-sulfonylamino)-phenylamino]-methyl}-phenyl)-acetamide]
CCCC1CC(=O)C2=C(C1)NC(C)=C(C#N)C2c1cc(Br)c(NCc2ccccc2NC(=O)OC)c(NS(=O)(=O)CCC)c1 (stereo not drawn) [Example 31, (2-{[2-Bromo-4-(3-cyano-2-methyl-5-oxo-7-propyl-1,4,5,6,7,8-hexahydro-quinolin-4-yl)-6-(propane-1-sulfonylamino)-phenylamino]-methyl}-phenyl)-carbamic acid methyl ester]
CCCC1CC(=O)C2=C(C1)NC(C)=C(C#N)C2c1cc(Br)c(NC(=O)c2cccc(NC(=O)CN3CCNCC3)c2)c(NS(=O)(=O)CCC)c1 (stereo not drawn) [Example 32, N-[2-Bromo-4-(3-cyano-2-methyl-5-oxo-7-propyl-1,4,5,6,7,8-hexahydro-quinolin-4-yl)-6-(propane-1-sulfonylamino)-phenyl]-3-(2-piperazin-1-yl-acetylamino)-benzamide]
CCCC1CC(=O)C2=C(C1)NC(C)=C(C#N)C2c1cc(Br)c(OCc2cccnc2)c(S(=O)(=O)N(CC)CC)c1 (stereo not drawn) [Example 36, 3-Bromo-5-(3-cyano-2-methyl-5-oxo-7-propyl-1,4,5,6,7,8-hexahydro-quinolin-4-yl)-N,N-diethyl-2-(pyridin-3-ylmethoxy)-benzenesulfonamide]
CCCC1CC(=O)C2=C(C1)NC(C)=C(C#N)C2c1cc(Br)c(OCc2cccnc2)c(S(=O)(=O)NC)c1 (stereo not drawn) [Example 37, 3-Bromo-5-(3-cyano-2-methyl-5-oxo-7-propyl-1,4,5,6,7,8-hexahydro-quinolin-4-yl)-N-methyl-2-(pyridin-3-ylmethoxy)-benzenesulfonamide]
CCCC1CC(=O)C2=C(C1)NC(C)=C(C#N)C2c1cc(Br)c(OCc2cccnc2)c(OCF)c1 (stereo not drawn) [Example 39, 4-[3-Bromo-5-fluoromethoxy-4-(pyridin-3-ylmethoxy)-phenyl]-2-methyl-5-oxo-7-propyl-1,4,5,6,7,8-hexahydro-quinoline-3-carbonitrile]
CCCC1CC(=O)C2=C(C1)NC(C)=C(C#N)C2c1cc(Br)c(OCc2cccnc2)c(OCC(F)F)c1 (stereo not drawn) [Example 40, 4-[3-Bromo-5-(2,2-difluoro-ethoxy)-4-(pyridin-3-ylmethoxy)-phenyl]-2-methyl-5-oxo-7-propyl-1,4,5,6,7,8-hexahydro-quinoline-3-carbonitrile]
CCCC1CC(=O)C2=C(C1)NC(C)=C(C#N)C2c1cc(Br)c(OCc2cscn2)c(S(=O)(=O)N(C)C)c1 (stereo not drawn) [Example 41, 3-Bromo-5-(3-cyano-2-methyl-5-oxo-7-propyl-1,4,5,6,7,8-hexahydro-quinolin-4-yl)-N,N-dimethyl-2-(thiazol-4-ylmethoxy)-benzenesulfonamide]
CCCC1CC(=O)C2=C(C1)NC(C)=C(C#N)C2c1cc(Br)c(OCc2cc(C)nn2C)c(S(=O)(=O)N(C)C)c1 (stereo not drawn) [Example 42, 3-Bromo-5-(3-cyano-2-methyl-5-oxo-7-propyl-1,4,5,6,7,8-hexahydro-quinolin-4-yl)-2-(2,5-dimethyl-2H-pyrazol-3-ylmethoxy)-N,N-dimethyl-benzenesulfonamide]
